Laboratory results published in the supplement of paper PMC11732987, “Enantioselective OTUD7B fragment discovery through chemoproteomics screening and high-throughput optimisation” (Communications Chemistry, 2025).
Some of the results follow. The data scatter; read single values as rough.

Columns and labels:
[1] = compound: ClCC(=O)N[C@@H]1CCCc2ccccc12; experiment: log2 mean competition ratio of IA-DTB cysteine labelling (DMSO/compound) (log2 ratio); higher = stronger cysteine engagement by compound; conditions: treatment time: 4 h, cell line lysate: HEK293T
Method: (§1)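 IA-DTB competitive cysteine chemoproteomics in HEK293T RIPA lysate. Lysates were treated with compound 29 or 30 at 50 or 200 µM for 4 h, then IA-DTB (500 µM, 1 h), trypsin-digested, NeutrAvidin-enriched and analysed by diaPASEF. Competition ratio = intensity DMSO / intensity compound (n=4 treated, n=64 DMSO); binding: mean log2 CR ≥ 1 and p ≤ 0.05 plus QC filters. Target is the cysteine site.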

[2] = compound: ClCC(=O)N[C@H]1CCCc2ccccc12; experiment: as above; conditions: treatment time: 4 h, cell line lysate: HEK293T
Method: as §1

Target	log2 mean competition ratio ([1]; 50 µM)	log2 mean competition ratio ([1]; 200 µM)	log2 mean competition ratio ([2]; 50 µM)	log2 mean competition ratio ([2]; 200 µM)
DCP1B C369 (UniProt Q8IZD4)	0.22	-0.104		
CRLF3 C95 (UniProt Q8IUI8)	-0.189	-0.153		
CTNND1 C429 (UniProt O60716)	0.232	0.335	0.285	0.254
CXXC1 C531 (UniProt Q9P0U4)	-0.0203	-0.013		
DDX28 C170 (UniProt Q9NUL7)	-0.119	0.029		
DCAF6 C513 (UniProt Q58WW2)	-0.0744	-0.106	0.0668	-0.0492
DECR2 C22 (UniProt Q9NUI1)	-0.232	-0.131		
DDX60 C1224 (UniProt Q8IY21)	-0.0116	-0.398	0.174	-0.142
CYFIP1 C519	-0.136	-0.084	-0.848	-0.137
DDX5 C221 (UniProt P17844)	-0.4	-0.039		
DDX3X C468 (UniProt O00571)	0.0439	0.228	0.134	0.0582
DCAF15 C211 (UniProt Q66K64)	-0.146	0.117	0.0787	0.168
DCAF5 C829 (UniProt Q96JK2)	0.0632	0.106		
DDX39B C239	-0.0145	-0.2		
DEK C161 (UniProt P35659)	0.232	-0.131	-0.15	-0.0652
CTTNBP2 C307	-0.116	-0.274		
CRYBG3 C1804 (UniProt Q68DQ2)	-0.155	-0.00607	0.327	-0.0946
CZIB C102 (UniProt Q9NWV4)	-0.148	-0.258	-0.654	-0.135
DCTN5 C46 (UniProt Q9BTE1)	0.021	-0.0663	0.0629	-0.173
DDHD2 C470 (UniProt O94830)	-0.139	-0.101	-0.242	-0.00405
DAB2IP C459 (UniProt Q5VWQ8)	0.0426	0.52	-0.402	0.224

Target	log2 mean competition ratio ([1]; 50 µM)	log2 mean competition ratio ([1]; 200 µM)	log2 mean competition ratio ([2]; 50 µM)	log2 mean competition ratio ([2]; 200 µM)
CSK C14 (UniProt P41240)	0.0604	-0.227	-0.435	-0.118
CUL1 C291 (UniProt Q13616)	-0.103	-0.304	0.191	-0.237
CUL5 C281 (UniProt Q93034)	0.0269	-0.492	-0.117	-0.561
DDX20 C758 (UniProt Q9UHI6)	0.00149	0.0553	-0.164	0.0518
DCAF1 C1070 (UniProt Q9Y4B6)	0.178	0.0199	-0.0236	-0.0279
DCTN1 C636 (UniProt Q14203)	-0.221	0.0324	-0.697	-0.113
CYLD C655 (UniProt Q9NQC7)	0.592	0.371	0.253	-0.011
CTDP1 C95 (UniProt Q9Y5B0)	0.0841	0.0298	0.521	0.183
DDX39B C198	-0.109	0.0691	-0.427	0.0405
CXorf38 C300 (UniProt Q8TB03)	-0.155	-0.13	0.414	-0.0647
DCUN1D4 C170 (UniProt Q92564)	0.078	0.0117	0.0533	0.349
DDX39A C164 (UniProt O00148)	0.242	-0.229	0.33	-0.212
CRBN C219 (UniProt Q96SW2)	0.0507	0.15	-0.00119	0.454
DCPS C37 (UniProt Q96C86)	-0.101	-0.242	-0.253	-0.302
DAGLB C86 (UniProt Q8NCG7)	-0.0443	-0.0715	-0.287	-0.218
DENND10P1;DENND10 C135;(C135)	-0.1	-0.0835	-0.135	-0.0414
CRNKL1 C745 (UniProt Q9BZJ0)	-0.0402	0.19	-0.123	0.208
CSNK2A2 C336 (UniProt P19784)	0.0728	-0.21	0.709	0.106
DDX31 C464 (UniProt Q9H8H2)	-0.000409	-0.241	-0.0557	-0.245
CTNND1 C450 (UniProt O60716)	-0.0185	0.144	0.0586	0.224
DAP3 C98 (UniProt P51398)	0.39	0.236	-0.0657	0.0609

Looked up above.
For log2 mean competition ratio ([2]; 50 µM), CSK C14 (UniProt P41240) is entered as -0.435
For log2 mean competition ratio ([2]; 200 µM), DDX39A C164 (UniProt O00148) is entered as -0.212
For log2 mean competition ratio ([2]; 200 µM), CRNKL1 C745 (UniProt Q9BZJ0) is entered as 0.208
For log2 mean competition ratio ([2]; 200 µM), CUL1 C291 (UniProt Q13616) is entered as -0.237

Continuation:

Target	log2 mean competition ratio ([1]; 50 µM)	log2 mean competition ratio ([1]; 200 µM)	log2 mean competition ratio ([2]; 50 µM)	log2 mean competition ratio ([2]; 200 µM)
DARS2 C152 (UniProt Q6PI48)	0.0451	-0.258	0.535	0.0803
DCBLD2 C725 (UniProt Q96PD2)	-0.142	0.193	-0.0756	0.000207
CUL1 C752 (UniProt Q13616)	-0.157	-0.368	0.104	-0.142
CSDE1 C464 (UniProt O75534)	-0.327	-0.32	-0.0271	-0.0331
CTU1 C237 (UniProt Q7Z7A3)	-0.03	0.218	0.105	0.146
CRYBG1 C541	-0.518	0.154	-0.265	-0.0978
DDX17 C447 (UniProt Q92841)	-0.262	-0.127	0.0784	-0.196
CXXC1 C549 (UniProt Q9P0U4)	-0.149	0.111	-0.0356	-0.028
CXXC1 C580 (UniProt Q9P0U4)	-0.171	0.326	0.0522	0.302
DDX51 C253 (UniProt Q8N8A6)	0.242	0.408	-0.17	0.268
CTPS1 C176 (UniProt P17812)	0.422	0.118	0.397	0.125
DCK C9 (UniProt P27707)	0.141	-0.277	-0.241	-0.132
DDX3X C223 (UniProt O00571)	-0.0886	-0.136	0.111	0.0191
CSNK2A2 C148 (UniProt P19784)	-0.153	-0.36	0.0451	-0.288
DBNL C127 (UniProt Q9UJU6)	-0.246	-0.178	0.0512	-0.0739
DAXX C720 (UniProt Q9UER7)	0.2	0.0542	0.204	0.0456
CRYBG3 C1502 (UniProt Q68DQ2)	-0.24	-0.0972	-0.215	0.0235
DDX51 C402 (UniProt Q8N8A6)	-0.241	0.297	-0.316	0.0566
CUL1 C496 (UniProt Q13616)	0.021	0.646	-0.13	0.26
CTR9 C196 (UniProt Q6PD62)	-0.0395	0.0321	-0.0936	0.131
